These are yes or no findings as the source states them, for the method shown. A result given as binding can be weak or reduced; the word gives no strength. Tags and fused reporters may be left off the sequences shown.

The values below come from publication PMC4778132, “CC chemokine receptor 10 cell surface presentation in melanocytes is regulated by the novel interaction partner S100A10” (Scientific Reports, 2016).

The target of test [1] is T1, GST-CCR10 CT (C-terminal cytoplasmic tail of human CCR10 fused to GST) (human) (UniProt P46092).
T1 sequence: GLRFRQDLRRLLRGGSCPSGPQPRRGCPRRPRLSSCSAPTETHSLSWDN
The test can be described thus: SPR; Biacore 3000; GST-CCR10 CT amine-coupled on a CM5 chip; six concentrations of HIS-tagged S100A10 derivative injected; HBS-P buffer (10 mM Hepes pH 7.4, 150 mM NaCl, 0.005% Tween-20), 25 °C; binding to GST alone subtracted; single binding site model, KD by the Scatchard equation; both purified. A general note: Surface plasmon resonance follows binding to a sensor surface in real time, without labels.

For test [2], the target named is T1, GST-CCR10 CT (C-terminal cytoplasmic tail of human CCR10 fused to GST) (human). The experiment in a line: pull-down; GST fusion proteins (50 μg) on glutathione sepharose beads incubated with purified protein (10 μg), 2 hours at 4 °C, IP buffer (20 mM Tris-HCl pH 7.5, 25 mM NaCl, 10 mM NaF, 1 mM EDTA, 0.1% Triton-X 100); immunoblot; both purified. Background: A western blot detects proteins with antibodies after separation by electrophoresis.

Turning to HIS-tagged human S100A10 mutant C82Q, the binding entry in test [1] and in test [2] was “binds” throughout.

For HIS-tagged human S100A10 mutant C82S, the binding result in test [1] and in test [2] was “binds” each time.
